{"source": "patent US11028127B2", "about": "“Peptides capable of reactivating p53 mutants” (Yeda Research and Development Co. Ltd., priority 2013, dated 2021)", "target": "T1, Mut-p53 (R175H p53) (Homo sapiens, UniProt P04637, R175H)", "T1 construct": "a hot spot full length mutant p53 Mut-p53 R175H (R175H p53); expressed in transfected cells; host or cells: H1299 (p53-null) cells stably overexpressing R175H p53; cell extract", "assay": "Sandwich ELISA for p53 conformation (PAb1620/PAb240 reactivity)", "type": "biochemical", "protocol": "To measure the conformational effect of the peptides on Mut-p53, a micro-titer plate was coated with either PAb240, PAb1620 or pAb421 (as a positive control and standard for total p53 protein, since the antibody used recognizes both WT and mutant conformations), overnight incubated, washed, blocked, and cell extracts (with or without peptides) were added for an additional 2 hours. After removal of extracts, plates were washed and incubated with the αp53-HRP conjugated Ab for the detection of p53 levels. A TMB (substrate of HRP) assay was performed and optical density was determined at 450 nm. WT p53 served as a positive control for reactivity with PAb1620, and Mut-p53 served as a negative control. The results are presented as the ratio of absorbance between the PAb1620 or PAb240 samples and the control […] sample. MCF7 and H1299-Mut-p53 (ts) A135V (TS) cells were used as positive controls for the WT p53 conformation (1620/240 ratio equals or exceeds 5:1). […]\nWells were incubated overnight (ON) with 100 μl Ab (5 μg/ml) in room temp (RT). […] The absorbance was measured at 450 nm with a spectrophotometer. Protein concentration was determined by dividing the absorbencies of each sample to the absorbance of Ab 421 samples. […]", "note": "Not every detail of the peptide structures is certain; ends, links or a residue may be inferred. Where no end group is shown, it is not given here."}
{"sequence": "YRRLLIGMMW [pCAP-25]", "values": [{"measurement": "effect on Mut-p53 conformation (conformational change)", "value": "no effect on p53 activity"}]}
